This is an account of results in patent publication US20220281999A1.

The target in the assay is streptavidin (genus Streptomyces) (UniProt P22629). Briefly: plate fluorescence assay (excitation 485 nm, emission 535 nm); binding through biotin.

No constants are given. Whether binding was seen depends on the method and setting. Some binding calls cover weakened binding; strength is not graded here.

B1: biotinylated fluorescent peptide (GGSGGSK, N-terminal fluorescein, C-terminal biotin) (peptide)
peptide: GGSGGSK
modifications: N-terminal modified with fluorescein; C-terminal modified with biotin
Take B1: the binding result is listed as “binds”.
